# Measurements taken from PubChem BioAssay AID504834 (National Center for Advancing Translational Sciences (NCATS), 2011).
# In all, about 320,000 compounds went through this assay and about 22,000 (6.9%) were called active. The shares of active, inactive and inconclusive entries below differ from those in the screen. Calls follow the shape of the dose curve; as a rule, active = well fitted inhibition curve with a large enough effect; inconclusive = small, poorly fitted or top-dose-only effect, or another doubt; inactive = no such curve, though single readings can be large or run the other way. Potencies beside an inconclusive call are fits to weak or partial responses and may not hold up.
# Assay: Primary qHTS for delayed death inhibitors of the malarial parasite plastid, 96 hour incubation
# Conditions: P. falciparum luciferase reporter growth; series mostly up to 28.7 µM; activity change, negative = inhibition: at the top concentration
# Outline: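 Cell-based qHTS: luciferase-tagged P. falciparum in erythrocytes (2% hematocrit, 0.05% parasitemia final) incubated with compounds for 96 hours, 37 C, 5% CO2; luciferase detection reagent then added and luminescence measured.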
# % is scaled to controls: 0 for no effect and ±100 for the full control effect; potency is read from the fitted curve at half-maximal effect.
Structure (SMILES),Potency,"activity change, negative = inhibition"
Cc1ccc(S(=O)(=O)N2[C@@H](c3ccc(Cl)cc3)C(C(=O)O)=CC[C@H]2c2ccc(Cl)c(Cl)c2)cc1,"inconclusive: 4.65 µM [inhibitor, partial curve, poor fit]",
COc1ccc(CC(=O)N2CCc3cc(OC)c(OC)cc3C2C)c(OC)c1 (centres undefined),"inconclusive: 18.5 µM [inhibitor, single point]",
Cc1ccc(-c2nc(NCc3ccco3)n(S(C)(=O)=O)n2)cc1,"inconclusive: 2.08 µM [inhibitor, partial curve, poor fit]",
CCOC(=O)c1ccc(NC(=O)C2=C(C)Nc3nc(CCCO)nn3C2c2ccc(OC)cc2)cc1 (centres undefined),"inconclusive: 4.65 µM [inhibitor, partial curve]",
C=CCNCC(=O)NN=C(c1ccccc1)c1ccccc1,,inactive: 2.25%
COc1ccc(NS(=O)(=O)c2ccc(C)c(C(=O)N(C)Cc3ccc(OC)cc3OC)c2)cc1,"inconclusive: 18.5 µM [inhibitor, partial curve, poor fit]",
O=C(CSc1nc(Nc2ccccc2)nc(N2CCOCC2)n1)Nc1ccc(Br)cc1F,"inconclusive: 0.0041 µM [inhibitor, full curve, poor fit]",
CCOc1ccccc1/C=N\Nc1cnn(Cc2ccccc2)c(=O)c1Cl,"inconclusive: 18.5 µM [inhibitor, single point]",
COc1cc(/C=N\NC(=O)c2sc(N)nc2C)cc(OC)c1OC,"inconclusive: 4.15 µM [inhibitor, partial curve, poor fit]",
COc1ccc(NC(=O)/C(C#N)=C\c2ccc(-c3cc(C(=O)O)ccc3C)o2)cc1,,inactive: 101%
CCn1c(CNc2nc(-c3ccccc3)cs2)nnc1SCC(=O)NCc1ccccc1,,inactive: -22.7%
COc1ccc(NC(=O)CCNC(=O)c2ccco2)cc1S(=O)(=O)N(C)C,,inactive: -13.3%
O=C(C[n+]1ccccc1)N/N=C/c1ccccc1C(F)(F)F,"inconclusive: 18.5 µM [inhibitor, single point]",
CCc1nc2nc(C)c(NS(=O)(=O)c3ccc(Cl)cc3)c(=O)n2[nH]1,,inactive: 9.34%
O=C(CC(=O)NC1CCCCC1)N/N=C/c1ccccc1Cl,"inconclusive: 4.15 µM [inhibitor, single point]",
COc1ccc(C2/C(=C(/O)c3ccc(C)cc3)C(=O)C(=O)N2C)c(OC)c1 (centres undefined),"inconclusive: 2.94 µM [inhibitor, single point]",
COc1ccc(CN(CC2CCC(C(=O)O)CC2)C(=S)Nc2ccccc2OC)cc1 (centres undefined),,inactive: 49.3%
Cc1ccn2c(=O)cc(C)nc2c1,"inconclusive: 11.7 µM [inhibitor, partial curve, poor fit]",
O=S(=O)(c1ccc(F)cc1)N1CCC(c2nc3ccccc3[nH]2)CC1,,inactive: -18.5%
COc1cc(C(=O)NCCc2cc3c(OC)ccc(OC)c3[nH]c2=O)cc(OC)c1OC,"inconclusive: 1.31 µM [inhibitor, full curve, poor fit]",

Structure (SMILES),Potency,"activity change, negative = inhibition"
COCCCn1c(N)c(C(=O)NCc2ccco2)c2nc3ccccc3nc21,"inconclusive: 11.7 µM [inhibitor, partial curve]",
CCn1cc(C(=O)Nc2ccc(C(=O)N3CCCC3)cc2)c(=O)c2ccc(C)nc21,"inconclusive: 13.1 µM [inhibitor, single point]",
CCOc1ccccc1Nc1nc(N)nc(CN2CCCCC2C)n1 (centres undefined),,inactive: -11.9%
COc1cc(Cl)c(C)cc1NC(=O)CC1SC(N2CCOCC2)=NC1=O (centres undefined),"inconclusive: 14.7 µM [inhibitor, partial curve, poor fit]",
O=C(Cn1nnc(-c2cccc(C(F)(F)F)c2)n1)NC(=O)NCc1ccco1,"inconclusive: 8.28 µM [inhibitor, partial curve]",
O=c1c2ccccc2nc(/C=C/c2cccnc2)n1CCc1ccccc1,"inconclusive: 5.86 µM [inhibitor, partial curve, poor fit]",
CC(Sc1nnc2c(n1)C1(C)CCC2C1(C)C)C(=O)Nc1ccccc1 (centres undefined),"inconclusive: 18.5 µM [inhibitor, partial curve, poor fit]",
Cc1nn(-c2ccccc2)c(C)c1/C=N/n1cnnc1,"inconclusive: 6.57 µM [inhibitor, partial curve, poor fit]",
CC(=O)c1cccc(CN2CCN(Cc3ccc(F)cc3)C(CCO)C2)c1 (centres undefined),"inconclusive: 18.5 µM [inhibitor, single point]",
CCN(CC)CCCNC(=O)CC1Sc2ccccc2NC1=O (centres undefined),"inconclusive: 3.7 µM [inhibitor, single point]",
CC1(C)CC2(CC(c3cccs3)c3cc(Cl)c(O)cc3O2)NC(=S)N1 (centres undefined),"inconclusive: 0.131 µM [inhibitor, full curve, poor fit]",
COc1ccc(NC(=O)C2CCN(C(=O)Nc3ccc(C)cc3)CC2)cc1OC,"inconclusive: 2.08 µM [inhibitor, full curve, poor fit]",
NNc1nc2sc3c(c2c(=O)n1C1CCCCC1)CCN(Cc1ccccc1)C3,active: 1.17 µM,
C/C1=C2N=C(/C=C3N=C(/C(C)=C4\[N-]C(C)(C5N=C1C(C)(CCC(=O)NCC(C)OP(=O)([O-])O[C@H]1C(O)C(n6cnc7cc(C)c(C)cc76)O[C@@H]1CO)C5CC(N)=O)C(C)(CC(N)=O)C4CCC(N)=O)C(C)(CC(N)=O)C\3CCC(N)=O)C(C)(C)C/2CCC(N)=O.[CH2-]C1OC(n2cnc3c(N)ncnc32)C(O)C1O.[Co] (some centres undefined),active: 6.75 µM,
Cn1c(O)c(C=Nc2ccc(F)cc2)c(=O)[nH]c1=O,"inconclusive: 13.1 µM [inhibitor, single point]",
O=c1cnn(-c2ccc(Cl)cc2Cl)c(-c2ccccc2)c1,"inconclusive: 18.5 µM [inhibitor, single point]",
Cc1ccc(C(=O)N2c3ccc(F)cc3CCC2C)o1 (centres undefined),"inconclusive: 16.5 µM [inhibitor, single point]",
CCN(CC)CCNC(=O)CNC(=O)c1nn(-c2ccc(OC)cc2)c(=O)c2ccccc12,"inconclusive: 4.65 µM [inhibitor, partial curve, poor fit]",
COC(=O)c1sccc1NC(=O)COc1cccc(C)c1,,inactive: 1.41%

# Compounds from the list above containing two or more sulfur atoms, in the order listed:
Structure (SMILES),Potency,"activity change, negative = inhibition"
CCn1c(CNc2nc(-c3ccccc3)cs2)nnc1SCC(=O)NCc1ccccc1,,inactive: -22.7%
CC1(C)CC2(CC(c3cccs3)c3cc(Cl)c(O)cc3O2)NC(=S)N1 (centres undefined),"inconclusive: 0.131 µM [inhibitor, full curve, poor fit]",
